Among all 53,000 sequences or so, about 3,700 (7%) were called active.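 How the source made its calls: active means gene knockdowns whose robust z-score for IL-1 alpha signal is at least 2 or at most -2, so actives lie on both sides; inactive means the rest.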 This is one part of the list.

A short description of the assay: Components of the Cytosolic LPS Sensing Pathway: Gene Identification via Genome-wide siRNA Screen.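 Further: robust z of the log signal after scaling to non-targeting control siRNA wells of the plate.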 The settings on record: RAW264.7 macrophages, IL-1a HTRF, actives lie on both sides, screened at 100 nM (by protocol), cells primed 5 h with Pam3CSK4 first. The method, boiled down: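 Read-out: IL-1a HTRF on supernatant, divided by plate negative-control median ×100, log-transformed and converted to robust z-score. Cells were RAW264.7 given 100 nM siRNA, Pam3CSK4-primed 5 hours, then LipidA-transfected 24 hour.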
For orientation: In TR-FRET formats the signal depends on donor and acceptor labels being close together.
For the sequence GGUGGUUGUUAUUGAAAAGTT against Mical3, the z-score was inactive: 1.34.
For CCUUAUUUAGCUAAGCAGATT against Ran, the z-score was active: -2.95.
For GGUGACUACUACACGGACUTT against Cdkl1, the z-score is inactive: -1.25.
Take GGAUUCAGCAAAUGCUUCCTT against Rcor3: the z-score is active: 2.31.
For the sequence CCUCUUUCUAGAGCGCAUCTT against Kcnk12, the z-score is inactive: 0.0784.
In the case of GGUGCAUACACUGAAGGAATT against Golga2 it was inactive: 0.331; in that of GCCGUGCUAUGUAUUAUUCTT against Twf1, inactive: -1.3; in that of GGUGCAACACUCUCUAUUUTT against Afap1l1, inactive: 0.963.
In the case of GCCCGUAUGGAUUUCACACTT against Dynlt3 it was inactive: -0.679; in that of GGAUCCUUAAUCGAUACACTT against Gng3, active: 2.38.
Then GGCACACACUGAUUUUUUUTT against Cops2, with inactive: 0.0987; and GGUGAUCCCAUUGUUUAUUTT against Fndc3c1, with inactive: 0.814.
For the sequence CCAGACUUCUUGUAGUUAUTT against Tpx2, the z-score was inactive: -0.875.
As for CCCUCACUUAUAGAAGAUUTT against Nat2, the z-score was inactive: -0.793.
In the case of GCAGAUUGACUUCUCGGCUTT against Pakap it was inactive: 0.258; in that of GGGCAUGGGAUUUAAUUCUTT against Dnajc11, inactive: 1.54; in that of CCUGCAUACGAAGUACAUATT against Bsg, active: 2.75.
Then GGAAGAAAUUCCUAAUGAATT against Igsf11, with inactive: -1.01.
Consider GCAAGUGGUUGAUUGAGAATT against Nsmce1, for which the z-score is inactive: -0.307.
In the case of GGCUGAUGACACUUACACATT against Vmn1r84 it was inactive: -0.566; in that of GCAAGGUCAAUCAAUCGUATT against Taar1, inactive: 0.548; in that of GCUACUUUGACAUGCACACTT against Caly, active: 2.1.
Then CCUGAACCAACAACGCAAATT against Patz1, with inactive: -0.342; and GCUUCACCUGACAAUGACUTT against Tsc22d3, with inactive: 1.2.
Regarding CCUGAACUGAAAUUCCAUGTT against Ftmt, the z-score is inactive: -0.417.
Turning to GGGUGGAGAAAUUUUAAUGTT against Dse, the z-score was inactive: -0.22.
Then GGAGCUGAGUGAAACUCUUTT against Kcnv1, with inactive: 1.03; and GGUAUAUCGCCUAAUCACUTT against Chd6, with inactive: -0.885.
As for GGAUCACUGGCACCAAUGUTT against Clca3a1, the z-score was inactive: -0.0483.
Then GGCAGGUAUGCAGUGAAGATT against Paqr9, with inactive: -1.63; and GGAAUAAGAGGAAGGUUACTT against Nanos2, with inactive: 0.148; and CGACAUCCCAAUAAACAAGTT against Lcn3, with inactive: -1.1.
With GGAUGAUAGCGCAAAAGAUTT against Tmem165, the z-score was inactive: 0.279.
In the case of GGCUCAACUUUUGUGAUUCTT against Olfr895 it was inactive: -1.45.
As for GGAAGAAGCUGAGGAAAGCTT against Spata1, the z-score was inactive: 0.15.
Then GGAAGAUAGACUUCCUCACTT against Pfdn5, with inactive: -1.26; and GGAAAUCAAGAAGUUUGAATT against Gmds, with inactive: 0.119; and CCACGUAUUUAAAUAGUUCTT against Gdf3, with inactive: -0.149.
As to GCUAAGCCCUACAUGACCATT against Plcb2, the z-score was inactive: -1.82.
With CCCGCACACCAAUUUCACGTT against Rnf128, the z-score is inactive: -0.069.
Take CGUUCUUUCAAGAAAGCAATT against Ubald2: the z-score was inactive: -1.79.
In the case of GGCCAACAUCAAAAUCGCCTT against Mark4 it was inactive: -0.111; in that of CCUUUGUCCAUGUUACCGATT against Rps14, inactive: 0.33; in that of CCUUGGUGGUCUGAAAUAATT against Cyp4a31, inactive: -0.159.
Consider GCUUAAUUCUUUUCAACGUTT against Gng2, for which the z-score was inactive: -1.66.
In the case of GGUGGUAUCGAUUUUGCUUTT against Cbx7 it was inactive: -0.344; in that of CCUUGGUCUGAUCGACUUGTT against Gadd45g, inactive: 0.748; in that of GGUGUUAGCGAAAUGCUCATT against Prl7b1, inactive: -0.875.
On to CGACCUGAAAGAUUCGGAATT against Ppara, for which the z-score was inactive: -1.04.
In the case of GGGAGCUAUGUUGUUAAAATT against Amotl2 it was inactive: 0.251.
Then GGUUAUUCAAAAAUGCAACTT against Rcor1, with inactive: -0.559.
In the case of CCCAUCUAUUAGAAUUGAGTT against Slc4a8 it was inactive: 0.68; in that of GGAAAAGUAUCCAUGUCACTT against Impa1, inactive: -1.75; in that of GGAUGAGAUAUUCAGCCAGTT against Rsph6a, inactive: -1.33.
Regarding GCAAGAACCUGGCCCAGAATT against Izumo1r, the z-score is inactive: -0.0769.
As for GGGAUGAAUAUUUGUGUCATT against Spred3, the z-score is inactive: -1.83.
Then GCCUGUUAGCUAUAUUAAGTT against Ahr, with inactive: 1.11; and GGAAGAUCUCUUGUCUGCUTT against Mtcp1, with inactive: -0.269; and GCGUAUAUGUUAUGCUUCATT against Zpbp, with inactive: 1.15.
Consider GGCAUCACAGUGUACGAUUTT against Glis3, for which the z-score was inactive: -0.331.
In the case of GGAACUGGAAAACUUCAAATT against Mrvi1 it was inactive: 1.04; in that of GGUUAUUACCCACUCAAAATT against Mkks, inactive: 0.707.
With CCCUUCACACGAGUAUGAATT against Rsph9, the z-score was inactive: 0.652.
Then GGUCGGCAAUAUCCUAUUUTT against Ttc13, with inactive: -0.584; and GGACAUCAACGACAGUGAATT against Cdh22, with inactive: -0.206; and GGUCUUUGUAUGUCUGUUUTT against Rad51d, with inactive: 1.06.
Then GGAGAGCUGCAUGAUUUCATT against Efcab2, with active: 3.67.
Take GCAGAUACGUAGAAGGAUCTT against Olfr555: the z-score was inactive: 0.116.
In the case of GGGCUUUUACUCCUACCUGTT against Slc43a2 it was inactive: -0.794.

These data come from PubChem BioAssay AID1508600 (Functional Genomics Laboratory (NCATS/FGL), 2020).
